Results are given in words; binding and its absence hold for the method and conditions named. Some results given as binding are weak or reduced against the parent protein; the word gives no strength.
Molecular target: T1, MMP-7 (recombinant, catalytic domain) (UniProt P09237)
T1 sequence (looked up): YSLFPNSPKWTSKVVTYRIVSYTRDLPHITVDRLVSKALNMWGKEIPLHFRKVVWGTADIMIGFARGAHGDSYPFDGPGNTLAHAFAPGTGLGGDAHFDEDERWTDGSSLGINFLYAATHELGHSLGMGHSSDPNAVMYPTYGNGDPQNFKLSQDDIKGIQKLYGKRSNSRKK
Test: Michaelis-Menten kinetics, HPLC assay

binding: binds
B1: azidopeptide N3-CH2CH2-CONH2-… (peptide)
peptide: RKRPLALWRSRK
modifications: N-terminal 3-azidopropionic acid (N3-CH2CH2-CO-)
